Test results: US20160002626A1, “TOX INHIBITION FOR THE TREATMENT OF CANCER” (priority 2012, published 2016)
Entries after “also recorded” stand apart in the source; their conditions may differ. For at least one compound, name, drawing or mass did not settle the structure.

Columns and labels:
TOX = test: Western blot of TOX expression (FIG. 6); assay type: cell-based; settings: CD4+ T cells
[1] = test system: TOX expression in T cells; test: TOX mRNA expression by microarray in activated PBMC / T cells treated with FK506; assay type: cell-based; settings: activated T cells (PBMC, PHA+PMA), FK506 0.8 ng/ml or 4 ng/ml, 6 hours, vs PBS

C=CC[C@@H]1/C=C(\C)C[C@H](C)C[C@H](OC)[C@H]2O[C@@](O)(C(=O)C(=O)N3CCCC[C@H]3C(=O)O[C@H](/C(C)=C/[C@@H]3CC[C@@H](O)[C@H](OC)C3)[C@H](C)[C@@H](O)CC1=O)[C@H](C)C[C@@H]2OC [FK506]
TOX expression after FK506 treatment (Western blotting) (TOX): down regulation of TOX expression | TOX mRNA levels [1]: inhibitory effect on TOX expression; also recorded: significantly reduced
